Experimental data from the supplement of paper PMC3682954.
Where a name gives a salt, the structure may show the parent alone. ± gives the standard deviation of the averaged measurements. The list shows a part of the results. Repeats are few or missing, and single values can be far off.

System: RAW 264.7
Assay: HMGB1-induced TNF-alpha production relative to HMGB1-stimulated control; higher = more TNF-alpha secretion (less inhibition)
Settings: stimulus: HMGB1 5 ug/ml, 18 h
[1] = compound concentration: 1 ug/ml

Row | SMILES | HMGB1-induced TNF-alpha production (compound concentration: 3 uM) | HMGB1-induced TNF-alpha production [1]
1 | CN(CCOc1ccc(NS(C)(=O)=O)cc1)CCc1ccc(NS(C)(=O)=O)cc1 | 111% | –
2 | CN(CCOc1ccc(NS(C)(=O)=O)cc1)CCc1ccc(NS(C)(=O)=O)cc1 [Dofetilide] | 86.3% | –
3 | CC(=O)N1CCN(c2ccc(OCC3COC(Cn4ccnc4)(c4ccc(Cl)cc4Cl)O3)cc2)CC1 (centres undefined) [Ketoconazole] | 82.7 ± 32% | –
4 | CC(=O)N1CCN(c2ccc(OCC3COC(Cn4ccnc4)(c4ccc(Cl)cc4Cl)O3)cc2)CC1 (centres undefined) | 99.5 ± 14% | –
5 | CCOC(=O)Nc1ccc2c(c1)N(C(=O)CCN1CCOCC1)c1ccccc1S2 [Moricizine hydrochloride] | 89.8% | –
6 | O=c1c(-c2ccc(O)cc2)coc2cc(O)cc(O)c12 [Genistein] | 83.5% | –
7 | O=c1cc(-c2cccc(O)c2O)oc2ccccc12 | – | 42.3%
8 | N[C@H](Cc1ccccc1)C(=O)O | 76.3% | –
9 | Nc1c2c(nc3c1CCC3)CCCC2 | 105% | –
10 | COc1cc(OC)c(C(=O)/C=C/c2ccc(OC)c(OC)c2)c(OC)c1 [3,4,2',4',6'-Pentamethoxychalcone] | – | 73.1%
11 | CCCc1nc(C)c2c(O)nc(-c3cc(S(=O)(=O)N4CCN(CC)CC4)ccc3OCC)nn12 | 73.9% | –
12 | CN(C)CCCSc1ccccc1NC(=O)/C=C/c1ccccc1 [Cinanserin] | 95.3 ± 19% | –
13 | COC(=O)[C@H]1[C@H]2C[C@@H]3c4[nH]c5cc(OC)ccc5c4CCN3C[C@H]2C[C@@H](OC(=O)c2cc(OC)c(OC)c(OC)c2)[C@@H]1OC | 91.2% | –
14 | COC(=O)[C@H]1[C@H]2C[C@@H]3c4[nH]c5cc(OC)ccc5c4CCN3C[C@H]2C[C@@H](OC(=O)c2cc(OC)c(OC)c(OC)c2)[C@@H]1OC [Reserpine] | 105 ± 1.7% | 71.4%
15 | CC(C)C[C@H](NC(=O)[C@@H](O)[C@H](N)Cc1ccccc1)C(=O)O | 97.5% | –
16 | CC(C)C[C@H](NC(=O)[C@@H](O)[C@H](N)Cc1ccccc1)C(=O)O [Bestatin hydrochloride] | 77.5% | –
17 | CNC(=C[N+](=O)[O-])NCCSCc1ccc(CN(C)C)o1 | 102% | –
18 | CNC(=C[N+](=O)[O-])NCCSCc1ccc(CN(C)C)o1 [Ranitidine] | 97.5% | –
19 | CNC(=C[N+](=O)[O-])NCCSCc1ccc(CN(C)C)o1 [Ranitidine hydrochloride] | 90.6 ± 21% | –
20 | C=CCc1ccc(O)c(-c2ccc(O)c(CC=C)c2)c1 | 85.4% | –
21 | O=C(O)CN(CCOCCOCCN(CC(=O)O)CC(=O)O)CC(=O)O | 75.9% | –
22 | CC(C)(CO)[C@@H](O)C(=O)NCCCO | 73% | –
23 | CC(C)(CO)[C@@H](O)C(=O)NCCCO (racemic) [D-Panthenol; dl-form as vitamin] | – | 81.5%

Complete entries from above. Values in the order: HMGB1-induced TNF-alpha production (compound concentration: 3 uM)	HMGB1-induced TNF-alpha production [1]
N[C@H](Cc1ccccc1)C(=O)O in the list: 76.3%	–
Nc1c2c(nc3c1CCC3)CCCC2 in the list: 105%	–
